Structures can show the parent of a compound that is named as a salt. The list shows a part of the results. Hit calls seldom repeat between salt and free forms of one compound.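 Kinases were expressed as nanoluciferase fusions in K562 cells and luminescence was read every 4 h between 2 and 18 h as percent of control, DMSO set to 100% and a positive control to 0%. A time point counts as decreased when the signal drops significantly (2 sigma). The hit call is the authors' own, does not follow from the count of time points alone, and its rule is not shown.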
Legend:
Conditions in all cases: K562; 2-18 h
STK38 = STK38 (UniProt Q15208); experiment: kinase-Nluc reporter destabilization hit call (1 = scored as downregulated) (binary); higher = compound decreases kinase abundance
SYK = SYK (UniProt P43405); experiment: as above
TEC = TEC (UniProt P42680); experiment: as above
TYK2 = TYK2 (UniProt P29597); experiment: as above
ULK3 = ULK3 (UniProt Q6PHR2); experiment: as above
YES1 = YES1 (UniProt P07947); experiment: as above
ZAK = ZAK (UniProt Q9NYL2); experiment: as above
ZAP70 = ZAP70 (UniProt P43403); experiment: as above
ABL1 = ABL1 (UniProt P00519); experiment: number of time points (of 5) at which kinase-Nluc abundance scored as decreased, DMSO-normalised (count); higher = more persistent destabilization
AKT1 = AKT1 (UniProt P31749); experiment: as above
ALK = ALK (UniProt Q9UM73); experiment: as above
ARAF = ARAF (UniProt P10398); experiment: as above
AURKA = AURKA (UniProt O14965); experiment: as above
AURKB = AURKB (UniProt Q96GD4); experiment: as above
AURKC = AURKC (UniProt Q9UQB9); experiment: as above
BLK = BLK (UniProt P51451); experiment: as above
BMX = BMX (UniProt P51813); experiment: as above
BRAF = BRAF (UniProt P15056); experiment: as above
BRAF_V600E = experiment: as above
BTK = BTK (UniProt Q06187); experiment: as above

Sequences of proteins named here, by UniProt entry; tags and fusion partners are left off. A change or cut given only in a name is not applied to a line headed by its entry.
UniProt Q15208: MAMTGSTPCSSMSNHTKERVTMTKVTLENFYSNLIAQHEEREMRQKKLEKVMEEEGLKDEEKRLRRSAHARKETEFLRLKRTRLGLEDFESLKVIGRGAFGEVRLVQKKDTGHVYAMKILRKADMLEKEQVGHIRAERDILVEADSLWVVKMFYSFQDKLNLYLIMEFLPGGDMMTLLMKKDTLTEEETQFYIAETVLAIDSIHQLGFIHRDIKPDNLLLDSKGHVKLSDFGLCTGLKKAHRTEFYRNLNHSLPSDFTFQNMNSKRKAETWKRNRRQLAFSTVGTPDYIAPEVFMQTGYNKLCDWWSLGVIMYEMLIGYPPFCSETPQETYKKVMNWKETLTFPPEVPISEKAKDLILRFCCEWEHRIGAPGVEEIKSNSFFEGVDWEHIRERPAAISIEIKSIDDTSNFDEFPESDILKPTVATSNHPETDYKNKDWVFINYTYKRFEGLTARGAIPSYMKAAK
UniProt Q6PHR2: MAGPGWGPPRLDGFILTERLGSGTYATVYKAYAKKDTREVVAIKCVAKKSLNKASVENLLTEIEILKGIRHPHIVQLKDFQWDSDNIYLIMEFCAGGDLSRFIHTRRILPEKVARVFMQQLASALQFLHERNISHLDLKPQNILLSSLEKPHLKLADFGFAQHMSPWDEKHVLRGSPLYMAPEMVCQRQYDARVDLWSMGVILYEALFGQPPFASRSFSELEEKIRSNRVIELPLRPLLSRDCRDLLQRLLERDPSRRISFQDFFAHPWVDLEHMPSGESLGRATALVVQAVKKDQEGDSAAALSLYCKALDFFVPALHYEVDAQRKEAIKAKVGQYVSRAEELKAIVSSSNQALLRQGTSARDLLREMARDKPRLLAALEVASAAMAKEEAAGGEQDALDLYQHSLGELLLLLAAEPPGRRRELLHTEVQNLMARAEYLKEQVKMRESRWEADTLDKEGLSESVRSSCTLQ
UniProt P43403: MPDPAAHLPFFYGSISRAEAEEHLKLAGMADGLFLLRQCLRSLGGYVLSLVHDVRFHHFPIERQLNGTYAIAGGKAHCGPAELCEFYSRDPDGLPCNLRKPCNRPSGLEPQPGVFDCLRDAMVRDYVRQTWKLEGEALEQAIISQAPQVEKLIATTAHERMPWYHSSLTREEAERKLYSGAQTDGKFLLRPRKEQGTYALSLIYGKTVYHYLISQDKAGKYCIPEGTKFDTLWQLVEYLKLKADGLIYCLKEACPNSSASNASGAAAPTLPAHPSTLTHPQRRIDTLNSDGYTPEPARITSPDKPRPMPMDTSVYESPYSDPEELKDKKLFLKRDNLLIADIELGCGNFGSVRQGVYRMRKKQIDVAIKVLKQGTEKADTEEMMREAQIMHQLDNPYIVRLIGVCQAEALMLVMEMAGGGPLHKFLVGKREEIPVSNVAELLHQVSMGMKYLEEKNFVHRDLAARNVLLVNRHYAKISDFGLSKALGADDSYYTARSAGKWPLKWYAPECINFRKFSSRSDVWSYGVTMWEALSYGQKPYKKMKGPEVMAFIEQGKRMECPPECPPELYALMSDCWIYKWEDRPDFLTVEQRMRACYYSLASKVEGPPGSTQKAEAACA
UniProt P00519, whole entry: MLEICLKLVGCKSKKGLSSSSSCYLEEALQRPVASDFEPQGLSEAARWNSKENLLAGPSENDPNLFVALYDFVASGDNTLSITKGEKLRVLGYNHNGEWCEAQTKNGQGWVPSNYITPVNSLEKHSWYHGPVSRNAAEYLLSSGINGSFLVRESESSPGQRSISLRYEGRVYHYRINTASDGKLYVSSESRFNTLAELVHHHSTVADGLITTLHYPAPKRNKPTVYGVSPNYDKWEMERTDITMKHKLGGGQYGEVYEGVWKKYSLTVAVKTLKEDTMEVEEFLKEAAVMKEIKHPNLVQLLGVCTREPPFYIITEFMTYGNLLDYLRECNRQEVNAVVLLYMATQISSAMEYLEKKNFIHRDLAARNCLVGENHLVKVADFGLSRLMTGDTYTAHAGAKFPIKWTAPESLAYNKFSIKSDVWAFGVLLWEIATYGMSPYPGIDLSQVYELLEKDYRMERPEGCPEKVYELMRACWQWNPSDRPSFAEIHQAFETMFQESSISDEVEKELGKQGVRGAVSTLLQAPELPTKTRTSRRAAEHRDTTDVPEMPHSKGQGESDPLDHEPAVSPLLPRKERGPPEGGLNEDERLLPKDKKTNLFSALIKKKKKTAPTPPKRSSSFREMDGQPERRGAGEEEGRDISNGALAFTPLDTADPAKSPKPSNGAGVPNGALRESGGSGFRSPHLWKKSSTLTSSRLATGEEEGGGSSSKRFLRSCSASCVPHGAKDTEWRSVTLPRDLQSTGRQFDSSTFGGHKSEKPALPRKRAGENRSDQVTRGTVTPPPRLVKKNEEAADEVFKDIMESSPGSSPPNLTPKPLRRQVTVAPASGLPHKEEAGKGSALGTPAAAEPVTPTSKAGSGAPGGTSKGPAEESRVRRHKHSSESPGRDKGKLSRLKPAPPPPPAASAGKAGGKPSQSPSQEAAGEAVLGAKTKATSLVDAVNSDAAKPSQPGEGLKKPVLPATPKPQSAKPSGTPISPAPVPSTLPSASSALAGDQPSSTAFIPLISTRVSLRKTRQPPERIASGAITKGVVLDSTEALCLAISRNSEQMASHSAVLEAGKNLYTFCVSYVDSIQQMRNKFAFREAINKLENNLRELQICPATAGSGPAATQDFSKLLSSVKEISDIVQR
UniProt P31749: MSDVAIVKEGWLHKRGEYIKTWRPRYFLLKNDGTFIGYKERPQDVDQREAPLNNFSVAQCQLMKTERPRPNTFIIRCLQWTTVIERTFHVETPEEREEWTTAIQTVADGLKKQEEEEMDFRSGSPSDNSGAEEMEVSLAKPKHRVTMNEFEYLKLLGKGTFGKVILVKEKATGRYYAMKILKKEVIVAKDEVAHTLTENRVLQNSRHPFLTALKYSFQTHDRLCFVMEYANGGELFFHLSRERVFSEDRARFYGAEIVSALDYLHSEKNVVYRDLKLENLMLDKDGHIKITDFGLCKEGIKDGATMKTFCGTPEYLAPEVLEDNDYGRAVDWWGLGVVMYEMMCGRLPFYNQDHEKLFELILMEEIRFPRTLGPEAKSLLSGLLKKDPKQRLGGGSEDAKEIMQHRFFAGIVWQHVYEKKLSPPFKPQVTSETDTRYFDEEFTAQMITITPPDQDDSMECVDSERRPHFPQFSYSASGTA
UniProt P10398: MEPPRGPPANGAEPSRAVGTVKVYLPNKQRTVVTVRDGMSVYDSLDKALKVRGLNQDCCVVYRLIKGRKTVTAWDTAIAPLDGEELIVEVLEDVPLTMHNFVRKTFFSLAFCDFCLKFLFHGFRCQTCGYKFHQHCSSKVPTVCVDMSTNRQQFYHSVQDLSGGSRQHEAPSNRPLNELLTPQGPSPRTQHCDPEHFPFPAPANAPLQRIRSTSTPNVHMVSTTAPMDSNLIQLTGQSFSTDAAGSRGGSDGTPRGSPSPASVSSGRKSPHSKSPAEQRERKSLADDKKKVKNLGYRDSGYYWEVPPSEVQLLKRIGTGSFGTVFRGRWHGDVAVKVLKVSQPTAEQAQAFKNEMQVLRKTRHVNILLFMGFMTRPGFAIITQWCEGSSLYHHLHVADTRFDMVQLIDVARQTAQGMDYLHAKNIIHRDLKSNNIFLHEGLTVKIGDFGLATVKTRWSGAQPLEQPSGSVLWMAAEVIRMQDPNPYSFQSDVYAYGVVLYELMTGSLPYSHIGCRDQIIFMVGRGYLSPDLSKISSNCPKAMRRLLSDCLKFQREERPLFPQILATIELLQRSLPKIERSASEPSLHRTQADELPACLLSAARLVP
UniProt O14965: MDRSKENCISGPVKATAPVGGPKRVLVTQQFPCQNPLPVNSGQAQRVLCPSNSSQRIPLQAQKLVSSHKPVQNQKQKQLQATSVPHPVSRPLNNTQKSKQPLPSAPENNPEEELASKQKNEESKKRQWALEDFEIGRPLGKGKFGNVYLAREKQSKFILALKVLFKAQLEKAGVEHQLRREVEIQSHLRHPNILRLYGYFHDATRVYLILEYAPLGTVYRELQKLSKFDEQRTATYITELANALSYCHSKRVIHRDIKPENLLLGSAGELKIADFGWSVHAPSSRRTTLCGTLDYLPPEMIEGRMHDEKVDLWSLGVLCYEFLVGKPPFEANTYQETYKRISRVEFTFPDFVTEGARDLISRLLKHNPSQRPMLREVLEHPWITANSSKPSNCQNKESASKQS
UniProt Q9UQB9: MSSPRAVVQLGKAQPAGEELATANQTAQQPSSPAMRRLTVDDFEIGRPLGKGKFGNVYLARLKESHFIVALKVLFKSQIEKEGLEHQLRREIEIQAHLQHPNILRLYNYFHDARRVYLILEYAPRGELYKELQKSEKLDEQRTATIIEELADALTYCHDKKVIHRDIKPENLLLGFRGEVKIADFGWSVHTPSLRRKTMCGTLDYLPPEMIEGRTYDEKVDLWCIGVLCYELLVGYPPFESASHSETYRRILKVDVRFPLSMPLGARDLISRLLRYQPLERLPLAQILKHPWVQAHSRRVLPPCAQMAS
UniProt P51813: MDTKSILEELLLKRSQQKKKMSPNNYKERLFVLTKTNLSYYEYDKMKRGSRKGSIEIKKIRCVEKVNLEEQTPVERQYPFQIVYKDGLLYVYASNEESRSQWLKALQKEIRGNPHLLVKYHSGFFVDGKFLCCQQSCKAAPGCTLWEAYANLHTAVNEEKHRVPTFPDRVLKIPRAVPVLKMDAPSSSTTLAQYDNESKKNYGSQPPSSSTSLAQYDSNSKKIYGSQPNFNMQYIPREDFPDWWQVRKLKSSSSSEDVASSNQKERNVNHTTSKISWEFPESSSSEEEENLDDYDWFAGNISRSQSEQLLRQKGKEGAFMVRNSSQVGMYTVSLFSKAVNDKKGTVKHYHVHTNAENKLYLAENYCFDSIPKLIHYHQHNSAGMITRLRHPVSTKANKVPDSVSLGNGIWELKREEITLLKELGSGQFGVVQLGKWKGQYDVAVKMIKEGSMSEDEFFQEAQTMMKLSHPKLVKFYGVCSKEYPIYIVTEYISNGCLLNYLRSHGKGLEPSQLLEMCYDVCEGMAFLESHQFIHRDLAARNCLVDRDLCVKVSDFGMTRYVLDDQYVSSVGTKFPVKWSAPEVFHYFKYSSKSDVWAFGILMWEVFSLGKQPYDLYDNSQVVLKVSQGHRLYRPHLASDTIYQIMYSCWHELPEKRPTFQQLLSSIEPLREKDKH
UniProt P15056, whole entry, looked up: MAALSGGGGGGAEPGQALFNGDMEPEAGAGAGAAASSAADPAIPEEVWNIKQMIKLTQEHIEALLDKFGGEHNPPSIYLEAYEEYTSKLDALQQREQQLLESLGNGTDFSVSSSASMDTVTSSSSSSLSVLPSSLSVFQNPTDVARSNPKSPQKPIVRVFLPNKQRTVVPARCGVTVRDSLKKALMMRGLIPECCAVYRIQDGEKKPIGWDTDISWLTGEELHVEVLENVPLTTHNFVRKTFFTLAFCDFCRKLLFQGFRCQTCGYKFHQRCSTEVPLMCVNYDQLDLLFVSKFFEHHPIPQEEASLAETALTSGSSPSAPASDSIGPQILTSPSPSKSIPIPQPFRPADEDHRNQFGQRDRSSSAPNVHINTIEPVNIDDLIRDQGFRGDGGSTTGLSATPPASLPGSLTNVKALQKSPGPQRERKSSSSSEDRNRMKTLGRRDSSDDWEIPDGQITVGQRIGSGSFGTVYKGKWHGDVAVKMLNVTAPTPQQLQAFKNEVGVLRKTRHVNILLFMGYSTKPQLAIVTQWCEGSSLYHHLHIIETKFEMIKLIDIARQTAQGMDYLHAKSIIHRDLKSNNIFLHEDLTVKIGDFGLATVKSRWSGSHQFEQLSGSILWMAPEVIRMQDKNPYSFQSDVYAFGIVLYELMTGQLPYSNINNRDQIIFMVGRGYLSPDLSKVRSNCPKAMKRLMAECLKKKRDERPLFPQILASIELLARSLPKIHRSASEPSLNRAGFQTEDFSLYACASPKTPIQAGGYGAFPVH
UniProt Q06187: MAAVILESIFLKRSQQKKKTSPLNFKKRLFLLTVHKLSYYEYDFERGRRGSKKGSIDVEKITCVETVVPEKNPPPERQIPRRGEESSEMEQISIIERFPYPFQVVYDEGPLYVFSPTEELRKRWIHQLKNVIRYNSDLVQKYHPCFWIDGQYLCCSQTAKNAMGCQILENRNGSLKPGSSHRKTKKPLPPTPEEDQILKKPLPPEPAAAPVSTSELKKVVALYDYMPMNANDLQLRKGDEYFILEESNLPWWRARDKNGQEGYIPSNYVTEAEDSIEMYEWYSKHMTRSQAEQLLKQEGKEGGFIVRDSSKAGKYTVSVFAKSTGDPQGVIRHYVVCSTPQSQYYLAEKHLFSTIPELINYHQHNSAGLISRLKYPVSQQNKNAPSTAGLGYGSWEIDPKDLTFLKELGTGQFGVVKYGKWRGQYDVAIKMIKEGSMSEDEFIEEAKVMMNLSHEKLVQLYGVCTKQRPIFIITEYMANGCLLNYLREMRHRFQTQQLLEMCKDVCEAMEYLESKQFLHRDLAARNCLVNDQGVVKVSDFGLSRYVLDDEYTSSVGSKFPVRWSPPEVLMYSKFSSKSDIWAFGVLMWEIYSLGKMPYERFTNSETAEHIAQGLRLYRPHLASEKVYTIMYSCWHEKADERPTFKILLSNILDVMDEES

Structure (SMILES)	kinase-Nluc reporter destabilization hit call (STK38)	kinase-Nluc reporter destabilization hit call (SYK)	kinase-Nluc reporter destabilization hit call (TEC)	kinase-Nluc reporter destabilization hit call (TYK2)	kinase-Nluc reporter destabilization hit call (ULK3)	kinase-Nluc reporter destabilization hit call (YES1)	kinase-Nluc reporter destabilization hit call (ZAK)	kinase-Nluc reporter destabilization hit call (ZAP70)	number of time points (ABL1)	number of time points (AKT1)	number of time points (ALK)	number of time points (ARAF)	number of time points (AURKA)	number of time points (AURKB)	number of time points (AURKC)	number of time points (BLK)	number of time points (BMX)	number of time points (BRAF)	number of time points (BRAF_V600E)	number of time points (BTK)
COc1ccc([C@H]2c3[nH]c4ccc(Cl)cc4c3CCN2C(=O)Oc2ccc(Cl)cc2)cc1 (2.5 µM)	inactive: 0	inactive: 0	inactive: 0	inactive: 0	inactive: 0	inactive: 0	inactive: 0	inactive: 0	0	0	0	0	0	0	0	1	0	0	0	0
CCn1c(=O)c(-c2ccc(-c3cncs3)cc2Cl)cc2cnc(Nc3ccc(N4CCN(C)CC4)cc3)nc21 (2.5 µM)	inactive: 0	inactive: 0	inactive: 0	inactive: 0	inactive: 0	inactive: 0	inactive: 0	inactive: 0	0	0	0	0	0	0	0	0	0	0	0	0
CN(C)CCN(Cc1ccc(Cl)cc1)c1ccccn1 [Chloropyramine hydrochloride] (10 µM)	active: 1	inactive: 0	inactive: 0	inactive: 0	inactive: 0	inactive: 0	inactive: 0	inactive: 0	0	0	0	0	0	0	0	0	0	0	0	0
N#CC(c1ccnc(NCCc2cccnc2)n1)c1nc2ccccc2s1 (stereo not given) (10 µM)	inactive: 0	inactive: 0	inactive: 0	inactive: 0	inactive: 0	inactive: 0	inactive: 0	inactive: 0	0	0	0	0	0	0	0	0	0	5	0	0
CN1CCN(c2ccc(C(=O)Nc3cc(-c4cccc(NS(=O)(=O)c5ccccc5)c4)[nH]n3)cc2)CC1 [BPR1J-097 Hydrochloride] (2.5 µM)	inactive: 0	inactive: 0	inactive: 0	inactive: 0	inactive: 0	inactive: 0	inactive: 0	inactive: 0	0	0	0	0	0	0	0	0	0	0	0	0
CC1CN(C(=O)Nc2ccc(Cl)c(Cl)c2)C(=Nc2ccc(F)cc2)S1 (stereo not given) (10 µM)	inactive: 0	inactive: 0	inactive: 0	inactive: 0	inactive: 0	inactive: 0	inactive: 0	inactive: 0	0	0	0	0	0	0	0	0	0	0	0	0
COC1(C(=O)N2Cc3nc(Cl)nc(N[C@H](C)c4cc(N)cc(C(F)(F)F)c4)c3C2)CCOCC1 (10 µM)	inactive: 0	inactive: 0	inactive: 0	inactive: 0	inactive: 0	inactive: 0	inactive: 0	inactive: 0	0	0	0	0	0	0	0	0	0	0	0	0
O=C(NCCCNC(=O)Nc1cccc(C2=NCCN2)c1)Nc1cccc(C2=NCCN2)c1 [p32 Inhibitor M36] (10 µM)	inactive: 0	inactive: 0	inactive: 0	inactive: 0	inactive: 0	inactive: 0	inactive: 0	inactive: 0	0	0	0	0	0	0	0	0	0	0	0	0
CNc1nc(Nc2cnn(C3CCN(C4COC4)CC3F)c2Cl)ncc1C(F)(F)F (stereo not given) (10 µM)	inactive: 0	inactive: 0	inactive: 0	inactive: 0	inactive: 0	inactive: 0	inactive: 0	inactive: 0	0	0	0	0	0	0	0	0	0	0	0	0
C[C@@H]1O[C@@H](O[C@H]2[C@H](Oc3cc(O)c4c(=O)cc(-c5ccc(O)cc5)oc4c3)O[C@H](CO)[C@@H](O)[C@@H]2O)[C@H](O)[C@H](O)[C@H]1O [Rhoifolin] (10 µM)	inactive: 0	inactive: 0	inactive: 0	inactive: 0	inactive: 0	inactive: 0	inactive: 0	inactive: 0	0	0	0	0	0	0	0	0	0	0	0	0
COC1(c2sc3c(N4CCOCC4)nc(-c4cnc(N)nc4)nc3c2C)COC1 (2.5 µM)	inactive: 0	inactive: 0	inactive: 0	inactive: 0	inactive: 0	inactive: 0	inactive: 0	inactive: 0	0	0	1	0	0	0	0	0	1	0	0	0
CCn1c(=O)c(-c2ccc(-c3cncc(C)n3)cc2Cl)cc2cnc(NCCC3CCN(C)CC3)nc21 (10 µM)	inactive: 0	inactive: 0	inactive: 0	inactive: 0	inactive: 0	inactive: 0	inactive: 0	inactive: 0	0	0	0	0	0	0	0	0	0	0	0	0
O=C(Nc1ccc2[nH]nc(-c3ccncc3)c2c1)[C@@H]1CCN(CC(=O)N2CCN(c3ccc(-c4ncccn4)cc3)CC2)C1 (2.5 µM)	inactive: 0	inactive: 0	inactive: 0	inactive: 0	inactive: 0	inactive: 0	inactive: 0	inactive: 0	0	0	0	0	0	0	0	0	0	0	0	0
NCCN1CCN(C/C=C/C(=O)N2CCC[C@@H](n3nc(-c4ccc(Oc5ccccc5)cc4)c4c(N)ncnc43)C2)CC1 [Ibrutinib-MPEA] (10 µM)	inactive: 0	inactive: 0	inactive: 0	inactive: 0	inactive: 0	inactive: 0	inactive: 0	inactive: 0	0	0	0	0	0	0	0	0	0	0	0	0
O=C(NCCO)c1ccc2c(c1)nc(Nc1cccc(Cl)c1)c1ccncc12 [CK2 inhibitor 2] (10 µM)	inactive: 0	inactive: 0	inactive: 0	inactive: 0	inactive: 0	inactive: 0	inactive: 0	inactive: 0	0	0	0	0	0	0	0	0	0	0	0	0
COc1cc([N+](=O)[O-])ccc1S(=O)(=O)N1C[C@@H](CN2CCN(c3ccccn3)CC2)[C@H](c2cccc(F)c2)C1 (relative stereo) (10 µM)	inactive: 0	inactive: 0	inactive: 0	inactive: 0	inactive: 0	inactive: 0	inactive: 0	inactive: 0	0	0	0	0	0	0	0	0	0	0	0	0
CCn1c(C(=O)N(C2CC2)C2CC2)cc2c3c(ncn3C)c(Nc3cc(C)n(C)n3)nc21 (10 µM)	inactive: 0	inactive: 0	inactive: 0	inactive: 0	inactive: 0	inactive: 0	inactive: 0	inactive: 0	0	0	0	0	0	0	0	0	0	0	0	0
Nc1ncnc2c1ncn2[C@@H]1O[C@H](CO)C[C@H]1O [Cordycepin] (10 µM)	inactive: 0	inactive: 0	inactive: 0	inactive: 0	inactive: 0	inactive: 0	inactive: 0	inactive: 0	0	0	0	0	0	0	0	0	0	0	0	0
Cc1ccc(S(=O)(=O)/C=C/C#N)cc1 (10 µM)	inactive: 0	inactive: 0	inactive: 0	inactive: 0	inactive: 0	inactive: 0	inactive: 0	inactive: 0	0	0	0	0	0	0	0	0	0	1	0	0
CC(C)(C)NC(=O)c1cncn1C1CCN(c2ccc(-c3nnc(C(F)(F)F)o3)cn2)CC1 (10 µM)	inactive: 0	inactive: 0	inactive: 0	inactive: 0	inactive: 0	inactive: 0	inactive: 0	inactive: 0	0	0	0	0	0	0	0	0	0	0	0	0
Cc1cc(Nc2cc3ncccc3c(N[C@@H]3C[C@H]4CC[C@@H](C3)N4CCC#N)n2)n[nH]1 [Izencitinib] (10 µM)	inactive: 0	inactive: 0	inactive: 0	inactive: 0	inactive: 0	inactive: 0	inactive: 0	inactive: 0	0	0	0	0	0	0	0	0	0	0	0	0

Ordered by number of heavy atoms (low to high): part of the list above
Structure (SMILES)	kinase-Nluc reporter destabilization hit call (STK38)	kinase-Nluc reporter destabilization hit call (SYK)	kinase-Nluc reporter destabilization hit call (TEC)	kinase-Nluc reporter destabilization hit call (TYK2)	kinase-Nluc reporter destabilization hit call (ULK3)	kinase-Nluc reporter destabilization hit call (YES1)	kinase-Nluc reporter destabilization hit call (ZAK)	kinase-Nluc reporter destabilization hit call (ZAP70)	number of time points (ABL1)	number of time points (AKT1)	number of time points (ALK)	number of time points (ARAF)	number of time points (AURKA)	number of time points (AURKB)	number of time points (AURKC)	number of time points (BLK)	number of time points (BMX)	number of time points (BRAF)	number of time points (BRAF_V600E)	number of time points (BTK)
CC1CN(C(=O)Nc2ccc(Cl)c(Cl)c2)C(=Nc2ccc(F)cc2)S1 (stereo not given) (10 µM)	inactive: 0	inactive: 0	inactive: 0	inactive: 0	inactive: 0	inactive: 0	inactive: 0	inactive: 0	0	0	0	0	0	0	0	0	0	0	0	0
CNc1nc(Nc2cnn(C3CCN(C4COC4)CC3F)c2Cl)ncc1C(F)(F)F (stereo not given) (10 µM)	inactive: 0	inactive: 0	inactive: 0	inactive: 0	inactive: 0	inactive: 0	inactive: 0	inactive: 0	0	0	0	0	0	0	0	0	0	0	0	0
CN1CCN(c2ccc(C(=O)Nc3cc(-c4cccc(NS(=O)(=O)c5ccccc5)c4)[nH]n3)cc2)CC1 [BPR1J-097 Hydrochloride] (2.5 µM)	inactive: 0	inactive: 0	inactive: 0	inactive: 0	inactive: 0	inactive: 0	inactive: 0	inactive: 0	0	0	0	0	0	0	0	0	0	0	0	0
